In assay [1] the target is B-Raf purified from MEFs (HA-tagged add-back or endogenous; the text does not tell which) (not stated (HA-tagged human cDNA or endogenous mouse)) (UniProt P15056). Description: affinity purification with mass spectrometry; IP of B-Raf from MEFs; the text does not tell whether HA-tagged add-back or endogenous B-Raf.
Assay [2] has as its target HA-tagged B-Raf^WT expressed in MCF-10A cells (UniProt P15056). Description: affinity purification with mass spectrometry; anti-HA agarose IP of HA-tagged B-Raf^WT from MCF-10A cells against empty vector cells.
For assay [3], the target named is HA-tagged B-Raf^D594A re-expressed in Braf deficient MEFs (human) (UniProt P15056). Description: affinity purification with mass spectrometry; anti-HA IP of HA-tagged B-Raf^WT or B-Raf^D594A from complemented Braf-/- MEFs expressing H-Ras^G12V::ER^TM; with or without 4-HT and 10 uM sorafenib; SILAC-based MS against vector control or B-Raf^WT IPs.

Sequences of proteins named here, by UniProt entry; tags and fusion partners are left off. A change or cut given only in a name is not applied to a line headed by its entry.
UniProt P15056: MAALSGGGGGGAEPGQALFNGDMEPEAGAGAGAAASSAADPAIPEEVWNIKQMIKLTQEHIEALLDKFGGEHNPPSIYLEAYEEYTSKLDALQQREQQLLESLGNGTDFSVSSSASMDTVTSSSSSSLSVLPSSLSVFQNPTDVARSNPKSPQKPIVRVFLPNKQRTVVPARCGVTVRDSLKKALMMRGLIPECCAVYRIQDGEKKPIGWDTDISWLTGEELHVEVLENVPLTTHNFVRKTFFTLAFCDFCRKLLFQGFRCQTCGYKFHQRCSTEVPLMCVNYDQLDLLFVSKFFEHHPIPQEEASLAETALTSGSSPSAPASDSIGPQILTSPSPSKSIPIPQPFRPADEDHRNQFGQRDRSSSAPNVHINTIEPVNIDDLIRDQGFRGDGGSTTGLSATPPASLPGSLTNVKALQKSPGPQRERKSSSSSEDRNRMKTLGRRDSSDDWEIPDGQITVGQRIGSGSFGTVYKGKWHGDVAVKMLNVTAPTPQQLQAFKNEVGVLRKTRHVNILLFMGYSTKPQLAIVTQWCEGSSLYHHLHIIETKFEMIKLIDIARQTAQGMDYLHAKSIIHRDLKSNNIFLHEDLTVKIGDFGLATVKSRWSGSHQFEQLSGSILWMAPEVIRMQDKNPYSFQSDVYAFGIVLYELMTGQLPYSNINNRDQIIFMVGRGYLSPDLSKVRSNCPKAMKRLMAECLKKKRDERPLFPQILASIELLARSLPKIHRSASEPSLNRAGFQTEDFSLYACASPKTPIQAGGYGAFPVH

These are yes or no findings as the source states them, for the method shown. In cells and extracts the contact can be indirect. These calls come from enrichment with a bait or labelling near it, and not all partners need be listed.

From article PMC5042004 come the findings set out here.

B1: PPP1R10, a regulatory subunit of the PP1 holo-phosphatase complex (mouse, MEFs) (protein, UniProt Q80W00 1-888)
chain: MGSGPIDPKELLKGLDSFLTRDGEVKSVDGISKIFSLMKEARKMVSRCTYLNIILQTRAPEVLVKFIDVGGYKLLNNWLTYSKTTNNIPLLQQILLTLQHLPLTVDHLKQNNTAKLVKQLSKSSEDEELRKLASVLVSDWMAVIRSQSSTQPAEKDKKKRKEEGKSRTTLPERPLTEVKAETRAEEAPEKKKEKPKSLRTTAPSHAKFRSTGLELDTPSLVPVKKNSSTVVVSDKYNLKPIPLKRQSATAAPGDAAPPAEKKYKPLNTAPNTTKEIKVKIIPPQPMEGLGFLDALNSAPVPGIKIKKKKKVLSPTAAKPSPFEGKTSTEQSTAKPSSPEPAPPAEPMDTDRPGTPVPPVEVPELMDAASSEPGALDAKPVDSPGDPNQLTRKGRKRKTVTWPEEGKLREYFYFELDETERVNVNKIKDFGEAAKREILSDRHAFETARRLSHDNMEEKVPWVCPRPLVLPSPLVIPGSNSQERYIQAEREKGILQELFLNKESPHEPDPEPYEPIPPKLIPLDEECAMDETPYVETLEPGGSGGSPDGAGGSKLPPVLANLMGSMGAGKSPQGPGGGGINVQEILTSIMGSPNSHPSEELLKQPDYSDKLKQMLVPHGLLGPGPVANGFPPGGPGGPKGMQHFPPGPGGPMPGPHGGPGGPVGPRLLGPPPPSRGGDPFWDGPGDPMRGGPMRGGPGPAPGPYHRGRGGRGGNEPPPPPPFRGARGGRSGGGPPNGRGGPGGGGMVGGGGHRPHEGPGGSMGSGHRSHDGPGGNMGSGHRSHDGPGGNMGGSGGHRSHEGPGHGGPHGHRPHDVPSHRGHDHRGPPPHEHRGHDGHGGGGHRGHDGGHSHGGDMSNRPVCRHFMMKGNCRYENNCAFYHPGVNGPPLP
Regarding B1, in assay [1], the binding result is recorded as “binds”.

B2: FKBP5 (human, MCF-10A) (protein, UniProt Q13451 1-457)
chain: MTTDEGAKNNEESPTATVAEQGEDITSKKDRGVLKIVKRVGNGEETPMIGDKVYVHYKGKLSNGKKFDSSHDRNEPFVFSLGKGQVIKAWDIGVATMKKGEICHLLCKPEYAYGSAGSLPKIPSNATLFFEIELLDFKGEDLFEDGGIIRRTKRKGEGYSNPNEGATVEIHLEGRCGGRMFDCRDVAFTVGEGEDHDIPIGIDKALEKMQREEQCILYLGPRYGFGEAGKPKFGIEPNAELIYEVTLKSFEKAKESWEMDTKEKLEQAAIVKEKGTVYFKGGKYMQAVIQYGKIVSWLEMEYGLSEKESKASESFLLAAFLNLAMCYLKLREYTKAVECCDKALGLDSANEKGLYRRGEAQLLMNEFESAKGDFEKVLEVNPQNKAARLQISMCQKKAKEHNERDRRIYANMFKKFAEQDAKEEANKAMGKKTSEGVTNEKGTDSQAMEEEKPEGHV
Consider B2, for which, in assay [2], the binding entry is on record as “binds”.

B3: sphingosine-1-phosphate lyase (mouse, MEFs) (enzyme, UniProt Q8R0X7 1-568)
chain: MPGTDLLKLKDFEPYLEILESYSTKAKNYVNGYCTKYEPWQLIAWSVLCTLLIVWVYELIFQPESLWSRFKKKLFKLIRKMPFIGRKIEQQVSKAKKDLVKNMPFLKVDKDYVKTLPAQGMGTAEVLERLKEYSSMDGSWQEGKASGAVYNGEPKLTELLVQAYGEFTWSNPLHPDIFPGLRKLEAEIVRMTCSLFNGGPDSCGCVTSGGTESILMACKAYRDLALEKGIKTPEIVAPESAHAAFDKAAHYFGMKIVRVALKKNMEVDVQAMKRAISRNTAMLVCSTPQFPHGVMDPVPEVAKLAVRYKIPLHVDACLGGFLIVFMEKAGYPLEKPFDFRVKGVTSISADTHKYGYAPKGSSVVMYSNEKYRTYQFFVGADWQGGVYASPSIAGSRPGGIIAACWAALMHFGENGYVEATKQIIKTARFLKSELENIKNIFIFGDPQLSVIALGSNDFDIYRLSNMMSAKGWNFNYLQFPRSIHFCITLVHTRKRVAIQFLKDIRESVTQIMKNPKAKTTGMGAIYGMAQATIDRKLVAEISSVFLDCLYTTDPVTQGNQMNGSPKPR
As to B3, the binding result in assay [3] is reported as “binds”.
